Experimental data as given in the supplement of paper PMC5949888.
Most values lie at the floor of the assay. Slopes are relative: functional sequences can read slightly below zero.

System: Saccharomyces cerevisiae PS128 hsf1 delta, HSF1(1-493) fusion
Assay: growth estimate (transactivation domain function in HSF1 fusion, heat-shock survival) (a.u. (slope of normalised read count over time)); higher = stronger growth at 37°C, i.e. more transactivation activity
Settings: library: random library

Substance | growth estimate
SQIGFFDIMNSCGLWAYDWA | 0.128
TIIPTSDRGLGAYNRVMPTT | < -0.25
VVEIPWLMLIAARVPLWING | < -0.25
RLQACYGFYSCVATGF | < -0.25
PSKHEFQGYAREGAHSRQCR | < -0.25
TEMVMNYIVLAQSLFSAFPE | < -0.25
DASGAQPLNGPLGWACRLWF | < -0.25
YRAMLR | < -0.25
WHGQCGGVQLLARSILRPTS | < -0.25
LGRLTRELGRGECFLERYPR | < -0.25
ILRDRLPHRCKQ | < -0.25
QFDAQGGGAEALVFRGVLIT | < -0.25
ILITASEHLDYGISGQAPNV | < -0.25
QESKDGVPRRRTCTFMTIEG | < -0.25
IRPQDL | < -0.25
APLASAILARCGRPTSAGLT | < -0.25
ARAVQVNGRTAQREELAQVQ | < -0.25
GYTLSPSESVI | < -0.25
FISSF | < -0.25
HLLSAS | < -0.25
SHCPQVVIIRRRCTRFCPNV | < -0.25
GESQVVQF | < -0.25
EKLFLLDCSPSPRRCTLVEP | < -0.25
LKVI | < -0.25

Substance | growth estimate
PGTCMPVYHRPKLTRRSP | < -0.25
ESCP | < -0.25
TRINIASLRSHWCPH | < -0.25
PAGASVSRSRSGDSA | < -0.25
LGWCTAWGRFNLRISFSADC | < -0.25
FKVTGLKSPLQAAF | < -0.25
DSFRLYLLAFL | < -0.25
KIVPWAT | < -0.25
KVCTYAVSGERMLSNVSCVQ | < -0.25
CGCSYLRG | < -0.25
ARNMKAEKVCSVFT | < -0.25
WGLSFTPPVRS | < -0.25
AVFPEGQTVSPSLGYERSPP | < -0.25
IESDERQGVQPYYCEHAWSR | < -0.25
RWSA | < -0.25
MMRIVH | < -0.25
GQGRCA | < -0.25
ADVVESCLQP | < -0.25
LCLEIRPRARGRTTLDLHGP | < -0.25
GRIAQAVCWGNAISERKPRT | < -0.25
CSWCVSFDPECG | -0.233
PLSKTPPPRLIAALKRSAAT | < -0.25
LAYVKYESPMGAGLSDPRVC | < -0.25
RERFVF | < -0.25

Substance | growth estimate
CNATGCSN | < -0.25
VVVSWRGRTKCTGWFVNGS | < -0.25
LRRPDAVLGLFPKSSQTYAR | < -0.25
KSNLSNRLELRFGLPSGPQT | < -0.25
TRIHSSDSHIRVTVSASFDT | < -0.25
LVLPTFSVC | < -0.25
MTTKTGGHFRPQFLCSGIVN | < -0.25
GDSRYSRK | < -0.25
KCRCRTESTTILGRPSMPSA | < -0.25
EIVRYFNYTPSQGLLSVAVR | < -0.25
VIDVCRYVGSASIEQKSASV | < -0.25
RVRYGDLVTRCQRPEHFRKS | < -0.25
EKG | < -0.25
FNRKENRQDVERS | < -0.25
LCHWSFTMVT | < -0.25
AAEVRSGDPHNGGALTLWVI | < -0.25
KSAFPIFLLGGRPLQPESSM | < -0.25
LASGRSLPRASRNEPRFQHH | < -0.25
ERYLHDLHRD | < -0.25
LVLLTTGRTNL | < -0.25
RELRKRSKLLWTGDQ | < -0.25
PSTILGYRHFREEMPSCC | < -0.25
TELHFKMEIPRVDLDLR | -0.241
RLDTATLLSYSAIT | < -0.25

Substance | growth estimate
VEWAALSIRGGLY | < -0.25
IHASPDIR | < -0.25
GYDGFSCN | < -0.25
RGRRGCSGLDWV | < -0.25
CQCTAWKPKFL | < -0.25
EKIGSPCK | -0.245
QELS | < -0.25
FVSSLPREDGVPRWWQAGAA | < -0.25
RGLNPCSVVTLPLNQGPSTA | < -0.25
VRHRLCAGS | < -0.25
DVSPAPYGVWGPGPNH | < -0.25
NNRKGSRL | < -0.25
HGPCSFNVSFFVGFLQRICA | < -0.25
GFRYGGRYRDSSKTCYVGQH | < -0.25
ERVNETFLDEFQFPPTLPSS | -0.0955
YEEEEPLQWAAKGIG | < -0.25
FGEPRSSLNNIVRSAVSAEV | < -0.25
GSEAAAWLAIICRNEFLRAV | < -0.25
AVVARGKNTEMEGGYLVDHL | < -0.25
CEVTQFRCASGSHSVRQAFS | < -0.25
FEYLQQFSIMGSNICRRLVT | < -0.25
YGRQILITVGISQQTD | < -0.25
TVPLPSTCFHEQLT | < -0.25
IDHP | -0.245

Single entries from the results shown:
growth estimate with IDHP is entered as -0.245
growth estimate with ERVNETFLDEFQFPPTLPSS is entered as -0.0955
growth estimate with EKIGSPCK is entered as -0.245
growth estimate with QELS is entered as < -0.25

(continued)

Substance | growth estimate
RGLNSQIALLALRVPFLSVV | < -0.25
LATRIHLRV | < -0.25
PVFWSIWGWRQGSGAPRIRR | < -0.25
TPASKSSTERTRTKSFQPNL | < -0.25
AEMDLEHVGARSNWLTGSLA | < -0.25
EKVVRVPYPGSSCGPLTFHP | < -0.253
NLYVVQATA | < -0.25
GESDIGCST | < -0.25
RLRGMEGDTLWAP | < -0.25
SKRCIPGTMRAGLWDGTSIF | < -0.25
RIDGSIPLYPVAAFGQWMSR | < -0.25
LRRLGWSGPPS | < -0.25
SIAINVVIAESQEPCLQFRT | < -0.25
LLGHQIRCKHECHSLLNFSE | < -0.25
IVGLDAGGRTDDLSGP | < -0.25
RGHSLLYLV | < -0.25
LPTPCMLLMECARG | < -0.25
DMERVGEGVVAKLSIQHF | < -0.25
SEKGWVLSSAQSNGGVSLHT | < -0.25
LHEGR | < -0.25
GVNLEGSSSIRA | < -0.25
LGIGLSWCLGNRYVE | -0.149
SILANKAGLPDGAQGRPTAW | < -0.25
RFMGFIRLPRKRPSLCVVRL | < -0.25

Substance | growth estimate
RCWAGSVRIGLAREDGSVNG | < -0.25
QQRLIRRVLRRLTSNLGLRM | < -0.25
GQPLDRSGLQGKNTVAGCLD | < -0.25
SSYTRPMELGLSQSPVISQA | < -0.25
PNCLPVR | < -0.25
SRPELSQ | -0.217
YCCAFGLVAS | < -0.25
APELRYAVSGQGERGVLAC | < -0.25
QMDHV | < -0.25
GPWVDTDC | < -0.25
YRSNPAGADTITRTLHL | < -0.25
QFLGFVTLVAGPALLIWESR | < -0.25
QVVGDGRGSAVIGVRGGASV | < -0.25
DGVG | < -0.25
HGVMIQR | < -0.25
RVSEVLGSALGASACPLRST | < -0.25
EMRVGCRPRAESCEGSLFEG | < -0.25
RSCCVVLRLYHDPWSVNSPG | < -0.25
RQGESEAVIALLNNKRVFSA | < -0.25
TSRRSSPQ | < -0.25
TWGMFCPLDG | < -0.25
RLFGKYGKGNSGKIRN | < -0.25
GHR | < -0.25
RAWQSTML | < -0.25
